The exact form of at least one protein or probe is not confirmed. For part of these data: A negative result means that nothing was seen under these conditions. For part of these data: The comparison behind a weaker result is the experiment's own reference, which may not be listed here. For part of these data: Where a protein sequence is shown, tags need not be part of it.

Chains of the proteins cited; added tags and fusions are not shown. Residues count along the entry.
UniProt P42003, 1-260: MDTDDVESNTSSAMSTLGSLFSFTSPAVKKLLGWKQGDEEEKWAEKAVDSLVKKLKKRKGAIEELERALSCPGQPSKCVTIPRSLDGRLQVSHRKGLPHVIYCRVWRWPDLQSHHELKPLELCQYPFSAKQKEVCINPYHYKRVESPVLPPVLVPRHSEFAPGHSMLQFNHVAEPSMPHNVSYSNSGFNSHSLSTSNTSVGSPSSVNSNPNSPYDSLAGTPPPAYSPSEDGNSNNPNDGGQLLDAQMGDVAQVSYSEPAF
UniProt P08515, whole entry: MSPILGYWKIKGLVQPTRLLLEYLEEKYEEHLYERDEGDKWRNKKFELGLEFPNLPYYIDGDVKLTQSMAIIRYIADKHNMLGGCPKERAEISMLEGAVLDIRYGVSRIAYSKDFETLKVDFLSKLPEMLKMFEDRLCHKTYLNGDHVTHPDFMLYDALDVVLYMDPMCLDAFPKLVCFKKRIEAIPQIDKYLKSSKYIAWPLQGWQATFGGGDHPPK

4 sequences from patent US20050227352 can be followed below.

In data set [1] the target is T1, GST-Med (Medea, full length) (Drosophila melanogaster) (UniProt O62609).
T1 sequence (looked up): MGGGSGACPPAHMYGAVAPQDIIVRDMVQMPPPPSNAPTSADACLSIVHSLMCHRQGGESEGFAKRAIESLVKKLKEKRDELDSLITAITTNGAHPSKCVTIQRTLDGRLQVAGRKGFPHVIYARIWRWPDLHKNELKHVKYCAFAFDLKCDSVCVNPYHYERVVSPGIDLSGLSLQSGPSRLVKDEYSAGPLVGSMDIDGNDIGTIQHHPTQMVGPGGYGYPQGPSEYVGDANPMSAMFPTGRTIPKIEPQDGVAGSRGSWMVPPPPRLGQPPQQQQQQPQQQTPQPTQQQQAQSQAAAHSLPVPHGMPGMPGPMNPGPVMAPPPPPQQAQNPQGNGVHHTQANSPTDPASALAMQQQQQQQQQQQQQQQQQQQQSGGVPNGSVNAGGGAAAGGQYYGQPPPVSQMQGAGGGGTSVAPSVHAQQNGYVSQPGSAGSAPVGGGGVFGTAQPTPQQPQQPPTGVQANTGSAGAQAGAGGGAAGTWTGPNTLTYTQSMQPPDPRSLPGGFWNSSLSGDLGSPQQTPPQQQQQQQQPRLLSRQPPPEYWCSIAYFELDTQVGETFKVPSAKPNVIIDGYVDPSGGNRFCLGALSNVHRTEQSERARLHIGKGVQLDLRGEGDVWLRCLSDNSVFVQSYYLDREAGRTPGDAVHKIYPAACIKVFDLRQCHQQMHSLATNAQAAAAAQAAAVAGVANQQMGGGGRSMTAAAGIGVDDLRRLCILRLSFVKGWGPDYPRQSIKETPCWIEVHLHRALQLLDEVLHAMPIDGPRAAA
In words: competition with a labelled probe. Particulars: purified recombinant protein, protein details: GST (pGEX-4T2), variant of bam silencer probe (A+B).

The target in data set [2] is GST-N-Mad (Mothers against dpp, N-terminal DNA binding domain and linker region) (Drosophila melanogaster) (UniProt P42003). In words: competition with a labelled probe. The following applies: purified recombinant protein, protein details: GST, variant of bam silencer probe (A+B).
For a further data set, the target named is GST (UniProt P08515). Description: EMSA. Particulars: GST negative control; purified recombinant protein; protein details: GST alone (pGEX, Amersham Pharmacia); label: Cy5 5'. (In general: A gel shift assay detects complexes by their altered migration in electrophoresis.)
The target of data set [3] is T1, GST-Med (Medea, full length) (Drosophila melanogaster). In words: EMSA. Particulars: higher affinity than Mad; double shift perhaps from degraded protein; purified recombinant protein; protein details: GST (pGEX-4T2); label: Cy5 5'.
The target of data set [4] is GST-N-Mad (Mothers against dpp, N-terminal DNA binding domain and linker region) (Drosophila melanogaster) (UniProt P42003). Description: EMSA. The following applies: lower affinity than Med; 5% native gel, 0.5x TBE, 4 C; purified recombinant protein; protein details: GST; label: Cy5 5'.
Setting [5] is: 100-fold excess, almost completely competes.

On to “CTCCTGAATTCGCAGACAGCGAGCGATTTCA (double strand) [competitor A (site A only)]”, for which the binding result is reported as “binds” in data set [1] (100-fold excess, effective competitor) and “binds” in data set [2] (setting [5]).

In the case of “CTCCTGAATTCGCAGACAGCGTGGCGTCAGCGATTTCA (double strand) [bam silencer probe (A+B)]”, the binding result is reported as “no binding” in the data set with GST, “binds” in data set [3] and “binds” in data set [4].

Regarding “CTCCTGAATTCGCAGACAGCGTGGCGTCAGCGATTTCA (double strand) [competitor A+B]”, the binding result in data set [1] (100-fold excess unlabeled competes Med binding) and in data set [2] (100-fold excess unlabeled competes Mad binding) was “binds” throughout.

In the case of “CTCCTGAATTTGGCGTCAGCGATTTCA (double strand) [competitor B (site B only)]”, the binding result is “binds more weakly” in data set [1] (100-fold excess, competes to much less extent than site A) and “binds” in data set [2] (setting [5]).
